Where a name gives a salt, the structure may show the parent alone. The list shows a part of the results. The calls rarely recur for the same compound in another form.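 In K562 cells expressing nanoluciferase-fused kinases, luminescence was recorded at 4 h intervals between 2 and 18 h, normalized as percent of control with DMSO at 100% and a positive control at 0%. A significant (2 sigma) signal drop marks a time point as decreased. The authors' rule for a hit is not shown and takes in more than the number of time points.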
Columns and labels:
Assay in all cases: kinase-Nluc reporter destabilization hit call (1 = scored as downregulated) (binary); higher = compound decreases kinase abundance
Details in all cases: K562, 2-18 h
PDPK1 = PDPK1 (UniProt O15530)
PIK4CA = PIK4CA (UniProt P42356)
PIK4CB = PIK4CB (UniProt Q9UBF8)
PLK1 = PLK1 (UniProt P53350)
PRKAA1 = PRKAA1 (UniProt Q13131)
PRKCA = PRKCA (UniProt P17252)
PTK2 = PTK2 (UniProt Q05397)
PTK2B = PTK2B (UniProt Q14289)
RAF1 = RAF1 (UniProt P04049)
[1] = biological target: RAF1_S257L (clone: RAF1_mut) (UniProt P04049)

Chains of the proteins cited; added tags and fusions are not shown. Lines headed by an entry give the natural chain unless they say otherwise; changes in a name come on top.
UniProt O15530: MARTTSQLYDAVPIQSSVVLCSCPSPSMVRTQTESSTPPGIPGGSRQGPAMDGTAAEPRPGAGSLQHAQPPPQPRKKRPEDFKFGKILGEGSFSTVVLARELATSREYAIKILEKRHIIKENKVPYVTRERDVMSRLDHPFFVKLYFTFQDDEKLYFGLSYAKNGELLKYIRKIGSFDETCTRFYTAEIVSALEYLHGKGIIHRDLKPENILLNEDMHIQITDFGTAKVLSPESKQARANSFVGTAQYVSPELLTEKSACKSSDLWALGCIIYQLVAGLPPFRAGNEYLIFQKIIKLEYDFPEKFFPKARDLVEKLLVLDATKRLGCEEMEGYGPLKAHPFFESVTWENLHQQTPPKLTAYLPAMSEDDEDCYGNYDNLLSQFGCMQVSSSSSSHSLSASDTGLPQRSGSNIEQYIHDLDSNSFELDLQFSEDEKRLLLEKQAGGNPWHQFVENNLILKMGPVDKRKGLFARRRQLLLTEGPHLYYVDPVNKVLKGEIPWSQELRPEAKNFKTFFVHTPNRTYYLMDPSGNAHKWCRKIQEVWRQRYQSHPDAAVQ
UniProt P42356, whole entry, looked up: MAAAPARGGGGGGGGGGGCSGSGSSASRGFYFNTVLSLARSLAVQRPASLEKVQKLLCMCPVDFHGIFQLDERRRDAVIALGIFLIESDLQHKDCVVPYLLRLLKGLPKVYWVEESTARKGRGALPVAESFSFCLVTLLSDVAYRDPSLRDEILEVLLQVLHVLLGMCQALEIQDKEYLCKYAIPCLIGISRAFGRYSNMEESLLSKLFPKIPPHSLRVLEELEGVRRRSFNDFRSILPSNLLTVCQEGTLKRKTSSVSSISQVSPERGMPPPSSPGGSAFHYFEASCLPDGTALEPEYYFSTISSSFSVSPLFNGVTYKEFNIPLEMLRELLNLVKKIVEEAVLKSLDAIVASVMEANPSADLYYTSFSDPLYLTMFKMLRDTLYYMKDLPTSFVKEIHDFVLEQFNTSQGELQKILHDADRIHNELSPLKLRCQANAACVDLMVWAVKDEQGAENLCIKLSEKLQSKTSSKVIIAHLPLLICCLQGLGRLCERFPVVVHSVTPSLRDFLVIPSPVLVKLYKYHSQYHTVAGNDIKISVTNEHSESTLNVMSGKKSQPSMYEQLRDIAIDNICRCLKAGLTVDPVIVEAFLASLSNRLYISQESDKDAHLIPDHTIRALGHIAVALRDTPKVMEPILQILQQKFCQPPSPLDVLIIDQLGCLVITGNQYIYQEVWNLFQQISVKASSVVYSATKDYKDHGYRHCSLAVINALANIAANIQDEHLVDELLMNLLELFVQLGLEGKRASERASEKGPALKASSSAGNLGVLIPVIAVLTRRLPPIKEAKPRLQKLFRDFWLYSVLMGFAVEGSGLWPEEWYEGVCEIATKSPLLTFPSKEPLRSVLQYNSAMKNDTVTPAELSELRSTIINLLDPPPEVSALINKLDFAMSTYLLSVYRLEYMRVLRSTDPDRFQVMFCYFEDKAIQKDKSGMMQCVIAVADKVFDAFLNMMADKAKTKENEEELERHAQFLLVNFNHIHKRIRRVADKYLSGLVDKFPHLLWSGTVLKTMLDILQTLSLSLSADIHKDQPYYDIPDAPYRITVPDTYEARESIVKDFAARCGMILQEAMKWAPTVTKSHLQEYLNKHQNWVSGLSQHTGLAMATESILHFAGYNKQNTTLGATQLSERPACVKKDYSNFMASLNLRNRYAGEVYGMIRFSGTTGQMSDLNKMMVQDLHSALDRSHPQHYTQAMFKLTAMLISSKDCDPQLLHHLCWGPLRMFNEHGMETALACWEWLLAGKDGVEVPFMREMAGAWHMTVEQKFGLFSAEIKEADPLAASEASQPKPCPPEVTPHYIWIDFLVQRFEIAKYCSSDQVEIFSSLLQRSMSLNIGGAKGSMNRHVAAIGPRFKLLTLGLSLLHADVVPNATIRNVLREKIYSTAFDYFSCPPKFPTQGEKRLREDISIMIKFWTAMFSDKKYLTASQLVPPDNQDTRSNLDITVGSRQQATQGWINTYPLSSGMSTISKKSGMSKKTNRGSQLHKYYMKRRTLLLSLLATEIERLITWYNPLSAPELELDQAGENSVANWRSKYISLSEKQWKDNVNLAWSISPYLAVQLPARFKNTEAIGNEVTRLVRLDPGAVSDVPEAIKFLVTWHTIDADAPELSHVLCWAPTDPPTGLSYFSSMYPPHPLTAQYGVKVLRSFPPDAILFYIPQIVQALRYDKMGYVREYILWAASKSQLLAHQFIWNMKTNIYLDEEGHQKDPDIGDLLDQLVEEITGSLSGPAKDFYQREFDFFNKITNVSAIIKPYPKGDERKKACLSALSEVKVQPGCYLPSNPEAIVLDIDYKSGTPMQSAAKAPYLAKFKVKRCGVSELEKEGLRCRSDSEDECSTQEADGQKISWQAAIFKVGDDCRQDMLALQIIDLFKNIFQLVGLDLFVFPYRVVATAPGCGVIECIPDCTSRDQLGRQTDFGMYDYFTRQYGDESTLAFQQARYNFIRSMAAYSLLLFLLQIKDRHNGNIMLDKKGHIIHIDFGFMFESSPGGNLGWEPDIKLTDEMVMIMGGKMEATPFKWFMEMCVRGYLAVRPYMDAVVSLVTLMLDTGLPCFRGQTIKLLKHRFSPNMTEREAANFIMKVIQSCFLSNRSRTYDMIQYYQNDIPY
UniProt P53350, whole entry: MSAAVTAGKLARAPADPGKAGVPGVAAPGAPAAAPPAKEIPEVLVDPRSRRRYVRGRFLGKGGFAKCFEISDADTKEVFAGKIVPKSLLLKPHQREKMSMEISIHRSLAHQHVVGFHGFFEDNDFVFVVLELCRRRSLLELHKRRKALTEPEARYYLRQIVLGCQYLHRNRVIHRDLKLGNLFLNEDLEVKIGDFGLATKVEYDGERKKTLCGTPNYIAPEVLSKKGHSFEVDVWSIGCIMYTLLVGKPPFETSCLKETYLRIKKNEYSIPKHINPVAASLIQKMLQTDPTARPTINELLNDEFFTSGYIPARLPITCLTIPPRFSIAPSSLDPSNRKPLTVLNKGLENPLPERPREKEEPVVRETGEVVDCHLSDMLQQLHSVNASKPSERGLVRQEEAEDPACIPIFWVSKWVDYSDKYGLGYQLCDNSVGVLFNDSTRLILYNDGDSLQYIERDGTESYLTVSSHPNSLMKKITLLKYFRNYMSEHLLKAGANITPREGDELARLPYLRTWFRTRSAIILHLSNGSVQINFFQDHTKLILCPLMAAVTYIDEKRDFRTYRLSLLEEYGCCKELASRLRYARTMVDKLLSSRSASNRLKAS
UniProt Q13131: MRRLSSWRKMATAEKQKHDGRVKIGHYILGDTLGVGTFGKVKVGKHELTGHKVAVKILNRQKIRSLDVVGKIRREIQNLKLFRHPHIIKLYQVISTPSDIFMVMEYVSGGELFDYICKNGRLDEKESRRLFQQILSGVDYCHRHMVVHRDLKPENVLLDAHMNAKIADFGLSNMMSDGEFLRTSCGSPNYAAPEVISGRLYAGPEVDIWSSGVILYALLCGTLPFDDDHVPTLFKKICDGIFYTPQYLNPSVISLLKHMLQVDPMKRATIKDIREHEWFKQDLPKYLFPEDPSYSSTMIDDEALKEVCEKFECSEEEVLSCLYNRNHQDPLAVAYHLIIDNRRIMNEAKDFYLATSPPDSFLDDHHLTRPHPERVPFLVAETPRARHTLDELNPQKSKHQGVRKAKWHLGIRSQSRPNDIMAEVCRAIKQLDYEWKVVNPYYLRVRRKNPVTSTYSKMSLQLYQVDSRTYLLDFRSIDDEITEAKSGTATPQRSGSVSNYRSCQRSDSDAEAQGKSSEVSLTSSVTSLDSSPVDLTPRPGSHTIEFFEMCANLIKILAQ
UniProt Q05397, whole entry, looked up: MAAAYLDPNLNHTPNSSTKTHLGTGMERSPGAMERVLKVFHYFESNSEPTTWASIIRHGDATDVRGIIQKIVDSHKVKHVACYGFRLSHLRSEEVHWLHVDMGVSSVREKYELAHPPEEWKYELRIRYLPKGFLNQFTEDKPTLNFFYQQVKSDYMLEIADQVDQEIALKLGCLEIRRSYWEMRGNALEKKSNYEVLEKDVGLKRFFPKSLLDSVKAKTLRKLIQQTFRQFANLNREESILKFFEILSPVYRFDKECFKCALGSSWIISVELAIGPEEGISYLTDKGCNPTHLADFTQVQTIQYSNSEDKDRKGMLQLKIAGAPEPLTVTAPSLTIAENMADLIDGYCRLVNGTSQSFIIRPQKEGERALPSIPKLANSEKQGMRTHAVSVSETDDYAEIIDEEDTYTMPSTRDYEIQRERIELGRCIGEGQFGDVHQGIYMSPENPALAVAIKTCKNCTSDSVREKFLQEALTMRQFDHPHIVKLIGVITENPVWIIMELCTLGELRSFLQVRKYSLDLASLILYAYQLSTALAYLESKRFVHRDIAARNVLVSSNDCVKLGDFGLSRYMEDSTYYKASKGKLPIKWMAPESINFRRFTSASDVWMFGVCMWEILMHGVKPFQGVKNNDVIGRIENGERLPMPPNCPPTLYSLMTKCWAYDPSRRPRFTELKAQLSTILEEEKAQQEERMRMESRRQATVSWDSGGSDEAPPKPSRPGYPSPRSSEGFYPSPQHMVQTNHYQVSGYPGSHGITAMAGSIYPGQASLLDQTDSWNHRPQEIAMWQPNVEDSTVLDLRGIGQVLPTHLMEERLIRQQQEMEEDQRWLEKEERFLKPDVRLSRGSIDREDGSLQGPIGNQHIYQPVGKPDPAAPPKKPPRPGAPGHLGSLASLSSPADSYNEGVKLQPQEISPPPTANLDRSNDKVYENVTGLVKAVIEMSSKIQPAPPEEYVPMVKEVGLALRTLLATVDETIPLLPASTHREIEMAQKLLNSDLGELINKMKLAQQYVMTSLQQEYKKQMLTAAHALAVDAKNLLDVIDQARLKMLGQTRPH
UniProt Q14289, whole entry, looked up: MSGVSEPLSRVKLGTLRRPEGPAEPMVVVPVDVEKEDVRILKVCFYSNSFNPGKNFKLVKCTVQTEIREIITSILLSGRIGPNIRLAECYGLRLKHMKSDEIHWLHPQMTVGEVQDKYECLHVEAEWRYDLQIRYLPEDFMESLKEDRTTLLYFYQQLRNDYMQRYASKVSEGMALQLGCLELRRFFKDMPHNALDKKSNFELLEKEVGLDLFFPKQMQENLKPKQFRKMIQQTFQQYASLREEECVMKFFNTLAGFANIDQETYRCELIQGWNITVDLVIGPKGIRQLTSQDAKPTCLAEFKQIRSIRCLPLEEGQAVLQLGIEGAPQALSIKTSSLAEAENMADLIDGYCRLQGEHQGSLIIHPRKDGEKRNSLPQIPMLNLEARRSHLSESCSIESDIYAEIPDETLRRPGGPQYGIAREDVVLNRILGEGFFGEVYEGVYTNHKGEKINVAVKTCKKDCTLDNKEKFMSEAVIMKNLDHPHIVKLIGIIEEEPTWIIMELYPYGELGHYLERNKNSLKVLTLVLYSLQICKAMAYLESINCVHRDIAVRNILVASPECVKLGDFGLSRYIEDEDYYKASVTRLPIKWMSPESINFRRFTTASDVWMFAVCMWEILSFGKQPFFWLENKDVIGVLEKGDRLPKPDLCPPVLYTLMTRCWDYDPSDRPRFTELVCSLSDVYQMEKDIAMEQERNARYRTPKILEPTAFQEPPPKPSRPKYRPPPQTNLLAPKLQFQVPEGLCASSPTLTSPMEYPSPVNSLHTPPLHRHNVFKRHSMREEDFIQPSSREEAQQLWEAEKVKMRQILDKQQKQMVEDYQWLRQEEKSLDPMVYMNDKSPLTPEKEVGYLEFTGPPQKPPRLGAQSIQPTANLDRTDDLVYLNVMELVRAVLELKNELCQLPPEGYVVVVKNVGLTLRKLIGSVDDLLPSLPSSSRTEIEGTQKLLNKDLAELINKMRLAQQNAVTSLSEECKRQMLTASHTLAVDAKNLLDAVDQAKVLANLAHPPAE

Measured: kinase-Nluc reporter destabilization hit call

C=CC(=O)Nc1cc2c(Nc3ccc(F)c(Cl)c3)ncnc2cc1OCCCN1CCOCC1 [Canertinib]
inactive: PDPK1; 10 µM 0 | PIK4CA; 10 µM 0 | PIK4CB; 10 µM 0 | PLK1; 10 µM 0 | PRKAA1; 10 µM 0 | PRKCA; 10 µM 0 | PTK2; 10 µM 0 | PTK2B; 10 µM 0 | RAF1; 10 µM 0 | [1]; 10 µM 0

Cc1cc(Nc2cc(N3CCN(C)CC3)nc(/C=C/c3ccccc3)n2)n[nH]1
inactive: PDPK1; 2.5 µM 0 | PIK4CA; 2.5 µM 0 | PIK4CB; 2.5 µM 0 | PLK1; 2.5 µM 0 | PRKAA1; 2.5 µM 0 | PRKCA; 2.5 µM 0 | PTK2B; 2.5 µM 0 | RAF1; 2.5 µM 0 | [1]; 2.5 µM 0

COc1cc2/c(=N/c3ccc(Br)cc3F)nc[nH]c2cc1OCC1CCN(C)CC1 [Vandetanib]
inactive: PDPK1; 2.5 µM 0 | PIK4CA; 2.5 µM 0 | PIK4CB; 2.5 µM 0 | PLK1; 2.5 µM 0 | PRKAA1; 2.5 µM 0 | PRKCA; 2.5 µM 0 | PTK2; 2.5 µM 0 | PTK2B; 2.5 µM 0 | RAF1; 2.5 µM 0 | [1]; 2.5 µM 0

Fc1ccc(-c2nc(-c3ccc4ccccc4c3F)[nH]c2-c2ccncc2)cc1
inactive: PDPK1; 10 µM 0 | PIK4CA; 10 µM 0 | PIK4CB; 10 µM 0 | PLK1; 10 µM 0 | PRKAA1; 10 µM 0 | PRKCA; 10 µM 0 | PTK2B; 10 µM 0 | [1]; 10 µM 0
active: PTK2; 10 µM 1

CCCCCC1CC1CC1CC1CCCCCCCC(=O)OC (stereo unspecified)
active: PTK2; 10 µM 1
inactive: PDPK1; 10 µM 0 | PIK4CA; 10 µM 0 | PIK4CB; 10 µM 0 | PLK1; 10 µM 0 | PRKAA1; 10 µM 0 | PRKCA; 10 µM 0 | PTK2B; 10 µM 0 | RAF1; 10 µM 0 | [1]; 10 µM 0

Cc1nc(Nc2ncc(C(=O)Nc3c(C)cccc3Cl)s2)cc(N2CCN(CCO)CC2)n1 [Dasatinib]
inactive: PDPK1; 2.5 µM 0 | PIK4CA; 2.5 µM 0 | PIK4CB; 2.5 µM 0 | PLK1; 2.5 µM 0 | PRKAA1; 2.5 µM 0 | PRKCA; 2.5 µM 0 | PTK2; 2.5 µM 0 | PTK2B; 2.5 µM 0 | RAF1; 2.5 µM 0 | [1]; 2.5 µM 0

O=C(NCCCNc1nc(Nc2cccc(CN3CCOCC3)c2)ncc1C1CC1)C1CCC1
inactive: PDPK1; 10 µM 0 | PIK4CA; 10 µM 0 | PIK4CB; 10 µM 0 | PLK1; 10 µM 0 | PRKCA; 10 µM 0 | PTK2; 10 µM 0 | PTK2B; 10 µM 0 | RAF1; 10 µM 0 | [1]; 10 µM 0

O=S(=O)(c1cccc2c(O)nccc12)N1CCCNCC1 [Hydroxyfasudil (hydrochloride)]
inactive: PDPK1; 10 µM 0 | PIK4CA; 10 µM 0 | PIK4CB; 10 µM 0 | PRKAA1; 10 µM 0 | PRKCA; 10 µM 0 | PTK2B; 10 µM 0 | RAF1; 10 µM 0 | [1]; 10 µM 0

Nc1ncccc1-c1nc2ccc(-c3ccccc3)nc2n1-c1ccc(C2(N)CCC2)cc1 [Miransertib]
inactive: PDPK1; 10 µM 0 | PIK4CA; 10 µM 0 | PIK4CB; 10 µM 0 | PLK1; 10 µM 0 | PRKAA1; 10 µM 0 | PRKCA; 10 µM 0 | PTK2; 10 µM 0 | PTK2B; 10 µM 0 | RAF1; 10 µM 0 | [1]; 10 µM 0

Nc1ncnc2n[nH]c(-c3ccc(Oc4ccccc4)cc3)c12 [Ibrutinib deacryloylpiperidine]
inactive: PDPK1; 10 µM 0 | PIK4CA; 10 µM 0 | PIK4CB; 10 µM 0 | PLK1; 10 µM 0 | PRKAA1; 10 µM 0 | PRKCA; 10 µM 0 | PTK2; 10 µM 0 | PTK2B; 10 µM 0 | RAF1; 10 µM 0 | [1]; 10 µM 0

CC(C)n1nc(-c2cc3cc(O)ccc3[nH]2)c2c(N)ncnc21 [Torkinib]
inactive: PDPK1; 2.5 µM 0 | PIK4CA; 2.5 µM 0 | PIK4CB; 2.5 µM 0 | PLK1; 2.5 µM 0 | PRKAA1; 2.5 µM 0 | PRKCA; 2.5 µM 0 | PTK2; 2.5 µM 0 | PTK2B; 2.5 µM 0 | RAF1; 2.5 µM 0 | [1]; 2.5 µM 0

Copied from the listing, 2 compounds:
Nc1ncccc1-c1nc2ccc(-c3ccccc3)nc2n1-c1ccc(C2(N)CCC2)cc1 [Miransertib]
inactive: PDPK1; 10 µM 0 | PIK4CA; 10 µM 0 | PIK4CB; 10 µM 0 | PLK1; 10 µM 0 | PRKAA1; 10 µM 0 | PRKCA; 10 µM 0 | PTK2; 10 µM 0 | PTK2B; 10 µM 0 | RAF1; 10 µM 0 | [1]; 10 µM 0

Nc1ncnc2n[nH]c(-c3ccc(Oc4ccccc4)cc3)c12 [Ibrutinib deacryloylpiperidine]
inactive: PDPK1; 10 µM 0 | PIK4CA; 10 µM 0 | PIK4CB; 10 µM 0 | PLK1; 10 µM 0 | PRKAA1; 10 µM 0 | PRKCA; 10 µM 0 | PTK2; 10 µM 0 | PTK2B; 10 µM 0 | RAF1; 10 µM 0 | [1]; 10 µM 0

Next compounds:

C[C@@H]1O[C@@H](Oc2c(-c3ccc(O)c(O)c3)oc3cc(O)cc(O)c3c2=O)[C@H](O)[C@H](O)[C@H]1O [Quercitrin]
inactive: PDPK1; 10 µM 0 | PIK4CA; 10 µM 0 | PIK4CB; 10 µM 0 | PLK1; 10 µM 0 | PRKAA1; 10 µM 0 | PRKCA; 10 µM 0 | PTK2; 10 µM 0 | PTK2B; 10 µM 0 | RAF1; 10 µM 0 | [1]; 10 µM 0

CCCOc1ccc(C=C2SC(=O)NC2=O)cc1
inactive: PDPK1; 10 µM 0 | PIK4CA; 10 µM 0 | PIK4CB; 10 µM 0 | PLK1; 10 µM 0 | PRKAA1; 10 µM 0 | PRKCA; 10 µM 0 | PTK2; 10 µM 0 | PTK2B; 10 µM 0 | RAF1; 10 µM 0 | [1]; 10 µM 0

COc1cc2ncnc(Nc3ccc(F)c(Cl)c3)c2cc1OCCCN1CCOCC1 [Gefitinib]
inactive: PDPK1; 10 µM 0 | PIK4CA; 10 µM 0 | PIK4CB; 10 µM 0 | PLK1; 10 µM 0 | PRKAA1; 10 µM 0 | PRKCA; 10 µM 0 | PTK2; 10 µM 0 | PTK2B; 10 µM 0 | RAF1; 10 µM 0 | [1]; 10 µM 0

CC(C)(C)n1nc(-c2ccc(Cl)cc2)c2c(N)ncnc21
inactive: PDPK1; 10 µM 0 | PIK4CA; 10 µM 0 | PIK4CB; 10 µM 0 | PLK1; 10 µM 0 | PRKAA1; 10 µM 0 | PRKCA; 10 µM 0 | PTK2; 10 µM 0 | PTK2B; 10 µM 0 | RAF1; 10 µM 0 | [1]; 10 µM 0

Cc1ccc(Nc2nccc(N(C)c3ccc4c(C)n(C)nc4c3)n2)cc1S(N)(=O)=O [Pazopanib]
inactive: PDPK1; 10 µM 0 | PIK4CA; 10 µM 0 | PIK4CB; 10 µM 0 | PLK1; 10 µM 0 | PRKAA1; 10 µM 0 | PRKCA; 10 µM 0 | PTK2; 10 µM 0 | PTK2B; 10 µM 0 | RAF1; 10 µM 0 | [1]; 10 µM 0

Cc1ccc(-n2nc(C(C)(C)C)cc2NC(=O)Nc2ccc(OCCN3CCOCC3)c3ccccc23)cc1 [Doramapimod]
inactive: PDPK1; 10 µM 0 | PIK4CA; 10 µM 0 | PIK4CB; 10 µM 0 | PLK1; 10 µM 0 | PRKAA1; 10 µM 0 | PRKCA; 10 µM 0 | RAF1; 10 µM 0 | [1]; 10 µM 0

COc1ccc(-c2c[nH]c3nccc(-c4ccsc4)c23)c(OC)c1
inactive: PDPK1; 10 µM 0 | PIK4CA; 10 µM 0 | PIK4CB; 10 µM 0 | PLK1; 10 µM 0 | PRKCA; 10 µM 0 | PTK2; 10 µM 0 | PTK2B; 10 µM 0 | RAF1; 10 µM 0 | [1]; 10 µM 0

O=C1NCCc2[nH]c(-c3ccncc3)cc21
inactive: PDPK1; 2.5 µM 0 | PIK4CA; 2.5 µM 0 | PIK4CB; 2.5 µM 0 | PRKAA1; 2.5 µM 0 | PRKCA; 2.5 µM 0 | PTK2; 2.5 µM 0 | PTK2B; 2.5 µM 0 | RAF1; 2.5 µM 0 | [1]; 2.5 µM 0
